Holding throughout (experiment): co-IP
The target in experiment [1] is T1, Upf1-FL-TAP (S. cerevisiae full-length Upf1, TAP tag) (S. cerevisiae) (UniProt P30771).
T1 sequence: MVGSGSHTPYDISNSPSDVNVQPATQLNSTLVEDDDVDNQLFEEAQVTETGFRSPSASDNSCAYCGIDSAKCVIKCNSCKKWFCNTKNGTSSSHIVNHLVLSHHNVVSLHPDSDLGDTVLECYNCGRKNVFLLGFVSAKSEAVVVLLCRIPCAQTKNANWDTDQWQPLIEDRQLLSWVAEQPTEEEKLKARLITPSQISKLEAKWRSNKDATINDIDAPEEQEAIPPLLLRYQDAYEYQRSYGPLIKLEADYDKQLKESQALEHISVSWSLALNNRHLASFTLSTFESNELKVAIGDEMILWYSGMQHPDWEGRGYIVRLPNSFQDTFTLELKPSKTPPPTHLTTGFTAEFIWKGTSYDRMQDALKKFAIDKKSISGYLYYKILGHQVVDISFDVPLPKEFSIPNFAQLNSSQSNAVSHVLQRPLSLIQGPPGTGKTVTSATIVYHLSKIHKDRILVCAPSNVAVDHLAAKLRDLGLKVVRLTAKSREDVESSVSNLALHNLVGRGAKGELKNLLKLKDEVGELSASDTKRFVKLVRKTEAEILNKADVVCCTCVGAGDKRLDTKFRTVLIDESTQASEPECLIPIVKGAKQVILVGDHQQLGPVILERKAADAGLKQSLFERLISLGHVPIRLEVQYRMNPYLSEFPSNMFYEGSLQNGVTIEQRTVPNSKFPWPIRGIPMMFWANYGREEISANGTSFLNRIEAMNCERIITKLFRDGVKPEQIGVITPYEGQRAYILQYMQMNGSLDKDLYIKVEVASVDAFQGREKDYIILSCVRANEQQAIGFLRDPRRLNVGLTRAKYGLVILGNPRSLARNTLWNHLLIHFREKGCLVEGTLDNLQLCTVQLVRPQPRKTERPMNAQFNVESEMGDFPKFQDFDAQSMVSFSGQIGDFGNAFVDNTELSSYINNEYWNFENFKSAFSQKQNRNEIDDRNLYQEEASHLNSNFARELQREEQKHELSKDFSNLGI

In experiment [2] the target is T2, TAP-Upf1-FL-G243R (S. cerevisiae) (S. cerevisiae) (UniProt P30771).
T2 sequence: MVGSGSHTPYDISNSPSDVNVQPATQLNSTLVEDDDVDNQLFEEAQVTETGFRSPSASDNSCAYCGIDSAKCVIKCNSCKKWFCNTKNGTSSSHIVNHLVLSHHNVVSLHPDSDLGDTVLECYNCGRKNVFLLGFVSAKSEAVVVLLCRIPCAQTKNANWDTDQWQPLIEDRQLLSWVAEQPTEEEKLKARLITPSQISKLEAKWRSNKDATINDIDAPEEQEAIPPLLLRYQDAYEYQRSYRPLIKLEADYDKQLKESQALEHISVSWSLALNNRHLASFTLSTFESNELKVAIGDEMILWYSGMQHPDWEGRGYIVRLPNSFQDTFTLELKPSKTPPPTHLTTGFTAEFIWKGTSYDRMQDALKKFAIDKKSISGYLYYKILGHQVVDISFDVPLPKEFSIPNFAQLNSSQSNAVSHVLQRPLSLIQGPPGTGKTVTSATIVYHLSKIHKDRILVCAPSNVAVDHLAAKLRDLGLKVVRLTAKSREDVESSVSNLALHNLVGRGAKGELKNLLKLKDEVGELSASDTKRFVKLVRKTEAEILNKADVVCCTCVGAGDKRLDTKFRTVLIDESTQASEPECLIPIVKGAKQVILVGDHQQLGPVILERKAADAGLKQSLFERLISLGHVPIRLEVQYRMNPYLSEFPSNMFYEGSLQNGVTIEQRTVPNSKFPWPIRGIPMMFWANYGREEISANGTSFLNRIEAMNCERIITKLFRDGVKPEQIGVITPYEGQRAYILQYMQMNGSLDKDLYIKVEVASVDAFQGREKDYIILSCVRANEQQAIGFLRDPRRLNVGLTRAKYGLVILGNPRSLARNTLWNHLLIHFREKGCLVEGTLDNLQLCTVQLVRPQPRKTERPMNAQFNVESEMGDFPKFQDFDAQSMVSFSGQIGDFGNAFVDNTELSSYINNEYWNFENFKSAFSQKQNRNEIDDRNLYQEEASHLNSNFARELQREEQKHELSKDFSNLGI

The target of experiment [3] is T3, TAP-Upf1-FL (S. cerevisiae full-length Upf1, N-terminal TAP tag, from a plasmid) (S. cerevisiae) (UniProt P30771).
T3 sequence: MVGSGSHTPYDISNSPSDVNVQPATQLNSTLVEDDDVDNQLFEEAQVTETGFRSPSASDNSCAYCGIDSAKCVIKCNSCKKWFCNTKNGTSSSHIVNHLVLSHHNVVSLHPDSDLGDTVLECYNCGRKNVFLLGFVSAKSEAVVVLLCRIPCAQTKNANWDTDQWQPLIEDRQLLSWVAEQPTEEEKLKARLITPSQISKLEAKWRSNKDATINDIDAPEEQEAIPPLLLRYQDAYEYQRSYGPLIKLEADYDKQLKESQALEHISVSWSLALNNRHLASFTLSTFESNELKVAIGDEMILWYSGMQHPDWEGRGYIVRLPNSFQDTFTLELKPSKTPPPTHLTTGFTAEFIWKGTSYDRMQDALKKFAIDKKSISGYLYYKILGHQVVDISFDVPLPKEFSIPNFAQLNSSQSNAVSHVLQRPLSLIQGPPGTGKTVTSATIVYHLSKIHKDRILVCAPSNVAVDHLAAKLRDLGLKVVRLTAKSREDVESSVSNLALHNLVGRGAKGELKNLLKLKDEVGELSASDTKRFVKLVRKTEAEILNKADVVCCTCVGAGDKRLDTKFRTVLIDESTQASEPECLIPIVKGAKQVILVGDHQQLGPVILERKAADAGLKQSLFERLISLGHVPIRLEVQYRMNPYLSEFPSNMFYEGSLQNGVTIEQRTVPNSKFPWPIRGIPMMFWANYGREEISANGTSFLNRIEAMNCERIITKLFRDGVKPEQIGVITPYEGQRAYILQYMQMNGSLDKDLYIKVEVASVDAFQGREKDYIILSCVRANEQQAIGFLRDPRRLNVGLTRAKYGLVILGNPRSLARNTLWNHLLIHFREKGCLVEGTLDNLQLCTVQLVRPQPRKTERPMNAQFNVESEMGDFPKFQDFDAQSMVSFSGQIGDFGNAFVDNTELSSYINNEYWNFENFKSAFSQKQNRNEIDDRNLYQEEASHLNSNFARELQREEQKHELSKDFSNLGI

Experiment [4] has as its target T4, TAP-Upf1-FL-G377R (S. cerevisiae) (S. cerevisiae) (UniProt P30771).
T4 sequence: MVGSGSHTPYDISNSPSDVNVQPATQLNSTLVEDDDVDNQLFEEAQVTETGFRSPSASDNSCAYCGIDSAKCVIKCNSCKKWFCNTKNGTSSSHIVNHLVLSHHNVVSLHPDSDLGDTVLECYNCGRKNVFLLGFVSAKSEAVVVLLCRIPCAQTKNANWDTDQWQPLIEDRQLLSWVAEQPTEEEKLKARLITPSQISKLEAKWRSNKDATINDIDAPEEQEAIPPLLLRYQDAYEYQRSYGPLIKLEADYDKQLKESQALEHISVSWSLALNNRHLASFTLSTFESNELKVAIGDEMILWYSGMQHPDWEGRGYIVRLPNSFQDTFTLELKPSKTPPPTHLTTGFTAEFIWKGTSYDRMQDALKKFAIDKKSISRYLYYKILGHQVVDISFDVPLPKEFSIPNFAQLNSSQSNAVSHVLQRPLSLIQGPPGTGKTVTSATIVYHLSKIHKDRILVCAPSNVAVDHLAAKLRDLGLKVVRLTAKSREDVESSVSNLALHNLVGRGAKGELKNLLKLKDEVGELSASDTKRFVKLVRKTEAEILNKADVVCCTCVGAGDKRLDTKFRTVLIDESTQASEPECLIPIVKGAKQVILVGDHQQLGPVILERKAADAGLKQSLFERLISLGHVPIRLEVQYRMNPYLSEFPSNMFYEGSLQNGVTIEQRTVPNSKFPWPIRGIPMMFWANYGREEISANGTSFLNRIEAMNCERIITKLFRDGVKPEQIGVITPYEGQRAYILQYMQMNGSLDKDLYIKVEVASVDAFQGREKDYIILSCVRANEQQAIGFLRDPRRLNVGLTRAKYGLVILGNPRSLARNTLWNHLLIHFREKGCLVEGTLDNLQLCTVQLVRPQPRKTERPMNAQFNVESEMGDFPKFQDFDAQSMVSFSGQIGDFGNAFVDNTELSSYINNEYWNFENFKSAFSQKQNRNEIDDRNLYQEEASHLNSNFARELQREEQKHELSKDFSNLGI

These are yes or no findings as the source states them, for the method shown. In cells and extracts the contact can be indirect. Some entries that bind do so weakly or less than the wild type. Tags and fused reporters may be left off the sequences shown.

B1: Nmd4-PIN-HA (S. cerevisiae Nmd4-[1-168], C-terminal 3HA tag at the genomic locus) (domain or fragment, UniProt Q12129 1-168)
chain: MTQYNFIIDASAFEKGLGNIKRWCSDCTEAVTLNFYIPTFTLNELDFLQQRRKSFAARESLKFIDRLDDSKFANLKVFIEFPEVLDIILWSDVMEHNDSSGKINIAKLPKRLKNLLKSCIYKCYLEGNEGLHWFLISEDPQIREMAMQCNIPSCSIVDVDSILSKDMN
Take B1: in experiment [1], the binding result was “no binding”.

B2: Nmd4-FL-HA (S. cerevisiae, C-terminal 3HA tag at the genomic locus) (protein, UniProt Q12129 1-218)
chain: MTQYNFIIDASAFEKGLGNIKRWCSDCTEAVTLNFYIPTFTLNELDFLQQRRKSFAARESLKFIDRLDDSKFANLKVFIEFPEVLDIILWSDVMEHNDSSGKINIAKLPKRLKNLLKSCIYKCYLEGNEGLHWFLISEDPQIREMAMQCNIPSCSIVDVDSILSKDMNDKSFRESEKFNNMMLKNGTKEESENGREIIRTNFNKTVYASRGTGELWSP
Take B2: the binding entry is on record as “binds” in experiment [1], “binds weakly” in experiment [2], “binds” in experiment [3] and “binds weakly” in experiment [4].

The record behind these values is article doi:10.1101/2024.02.27.582253.
